Consider 7 molecules from patent publication US9745335B2 (Blirt S.A., priority 2012, dated 2017).

In the data set the test system is Human erythrocytes. The data set can be described thus: hemotoxicity determination (hemolytic activity). The data set is classed as cell-based. To be noted: for WS EH50/IC50 (selectivity coefficient): EH50 divided by antifungal IC50; for WE WS(z)/WS(AmB) (effectivity factor): selectivity coefficient of derivative relative to native antibiotic. The procedure:
The hemotoxicity determination was carried out by the serial dilutions method, according to the procedure described earlier (Slisz, M., et al., E., J Antibiot 57: 669-678 (2004). Human erythrocytes were suspended in the solution of saline to obtain a cell density of suspension 2×10^7/ml. Suitable amounts of diluted solutions of compounds were added to the cell suspension in tubes and were incubated at 37° C. for 30 minutes and then centrifuged (1700×g, 10 min, 4° C.). The concentration of hemoglobin in supernatant after centrifugation of erythrocytes suspension were determined by measuring the absorbance at wavelength λ=540 nm (A540). The maximum level of hemolysis was obtained after incubation of cells suspension in the presence of 0.1% Tritone X-100 (control sample). […] From these graphs, the EH50 values were read which are the interpolated concentrations of compound, for which the A540 value is exactly 50% of the A540 value measured for the control sample.

Turning to `C[C@@H]1[C@H](O)[C@@H](C)/C=C/C=C/C=C/C=C/C=C/C=C/C=C/[C@H](O[C@@H]2O[C@H](C)[C@@H](O)[C@H](NCc3ccc(-c4ccccc4)cc3)[C@@H]2O)C[C@@H]2O[C@](O)(C[C@@H](O)C[C@@H](O)[C@H](O)CC[C@@H](O)C[C@@H](O)CC(=O)O[C@H]1C)C[C@H](O)[C@H]2C(=O)O` [Compound A20, N-[(4-biphenyl)methyl]amphotericin B], the “WS EH50/IC50 (selectivity coefficient)” value is >61.35 and the “WE WS(z)/WS(AmB) (effectivity factor)” value was >3.45.
On the same counts, the results for `C[C@@H]1[C@H](O)[C@@H](C)/C=C/C=C/C=C/C=C/C=C/C=C/C=C/[C@H](O[C@@H]2O[C@H](C)[C@@H](O)[C@H](NC(=S)NCCN3CCCCC3)[C@@H]2O)C[C@@H]2O[C@](O)(C[C@@H](O)C[C@@H](O)[C@H](O)CC[C@@H](O)C[C@@H](O)CC(=O)O[C@H]1C)C[C@H](O)[C@H]2C(=O)O` [Compound A22, N-{[3-(2-piperidin-1-yl)ethyl]thioureidyl}amphotericin B] are >140.84 and >7.93.
On the same counts, the results for `C[C@@H]1[C@H](O)[C@@H](C)/C=C/C=C/C=C/C=C/C=C/C=C/C=C/[C@H](O[C@@H]2O[C@H](C)[C@@H](O)[C@H](NC(=O)[C@@H](N)Cc3ccccc3)[C@@H]2O)C[C@@H]2O[C@](O)(C[C@@H](O)C[C@@H](O)[C@H](O)CC[C@@H](O)C[C@@H](O)CC(=O)O[C@H]1C)C[C@H](O)[C@H]2C(=O)O` [Compound A30, N-L-phenylalanylamphotericin B] are >111.11 and >6.26.
On the same counts, the results for `C[C@@H]1[C@H](O)[C@@H](C)/C=C/C=C/C=C/C=C/C=C/C=C/C=C/[C@H](O[C@@H]2O[C@H](C)[C@@H](O)[C@H](NC(=O)[C@@H](N)Cc3ccc([N+](=O)[O-])cc3)[C@@H]2O)C[C@@H]2O[C@](O)(C[C@@H](O)C[C@@H](O)[C@H](O)CC[C@@H](O)C[C@@H](O)CC(=O)O[C@H]1C)C[C@H](O)[C@H]2C(=O)O` [Compound A33, N-L-p-nitrophenylalanylamphotericin B] are >71.94 and >4.05.
In the case of `C[C@@H]1[C@H](O)[C@@H](C)/C=C/C=C/C=C/C=C/C=C/C=C/C=C/[C@H](O[C@@H]2O[C@H](C)[C@@H](O)[C@H](NC(=O)[C@H](N)Cc3cccnc3)[C@@H]2O)C[C@@H]2O[C@](O)(C[C@@H](O)C[C@@H](O)[C@H](O)CC[C@@H](O)C[C@@H](O)CC(=O)O[C@H]1C)C[C@H](O)[C@H]2C(=O)O` [Compound A36, N-D-β-(pyridin-3-yl)alanylamphotericin B], the “WE WS(z)/WS(AmB) (effectivity factor)” value is given as >10.62.
On to `C[C@@H]1[C@H](O)[C@@H](C)/C=C/C=C/C=C/C=C/C=C/C=C/C=C/[C@H](O[C@@H]2O[C@H](C)[C@@H](O)[C@H](NC(=O)[C@H](N)COC(C)(C)C)[C@@H]2O)C[C@@H]2O[C@](O)(C[C@@H](O)C[C@@H](O)[C@H](O)CC[C@@H](O)C[C@@H](O)CC(=O)O[C@H]1C)C[C@H](O)[C@H]2C(=O)O` [Compound A40, N-D-(O-tert-butyl)serylamphotericin B], for which the “WS EH50/IC50 (selectivity coefficient)” value is reported as >148.15 and the “WE WS(z)/WS(AmB) (effectivity factor)” value is recorded as >8.34.
For `C[C@@H]1[C@H](O)[C@@H](C)/C=C/C=C/C=C/C=C/C=C/C=C/C=C/[C@H](O[C@@H]2O[C@H](C)[C@@H](O)[C@H](NC(=O)[C@H](N)c3ccccc3)[C@@H]2O)C[C@@H]2O[C@](O)(C[C@@H](O)C[C@@H](O)[C@H](O)CC[C@@H](O)C[C@@H](O)CC(=O)O[C@H]1C)C[C@H](O)[C@H]2C(=O)O` [Compound A41, N-D-phenylglycylamphotericin B], in that order: >68.49 and >3.86.
